Measurements taken from PubChem BioAssay AID1487 (National Center for Advancing Translational Sciences (NCATS), 2009).
The other results are listed elsewhere or left out. These are further read-outs of the screen, such as a control signal, another cell line or another target. No call is given for them. Most of these compounds were active or inconclusive in the main read-out, so they are no random draw. Words in brackets tell the shape of the fitted curve; partial curves, single points and poor fits give uncertain potencies.

Assay: qHTS Assay for Modulators of Lamin A Splicing
Conditions: HeLa LMNA splicing GFP/RFP minigene ratio, 48 h
Procedure, shortened: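 Read-out is the ratio of GFP to DsRed2 object intensity, acquired by 488 nm laser-scanning cytometry on HeLa lamin A-EGFP minigene reporter cells. Compound incubation 48 hrs at 37 °C in Opti-MEM with 2% FBS; DMSO 0.5% final.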

[1] = measured here: RFP viability control channel
[2] = measured here: GFP splicing reporter channel

| Structure (SMILES) | AC50 [1] | AC50 [2] |
| --- | --- | --- |
| CCOC(=O)c1[nH]c2ccc(OCC)cc2c1NC(=O)CN1CCN(c2ccccn2)CC1 | 11.2 µM [rising, partial curve] | – |
| FC(F)(F)c1cccc(CN2CCCCCC2)c1 | – | 35.5 µM [falling, single point] |
| CC(=O)n1c2ccccc2c2c1c1ccccc1n2C | 0.316 µM [rising, full curve] | – |
| CCOc1nc(-c2ccc(OC)cc2)ccc1-c1noc(C)n1 | 31.6 µM [rising, single point] | 35.5 µM [rising, single point] |
| COc1ccc(NC(=O)CC2C(=O)N(c3ccc(Cl)cc3)C(=S)N2NC(=O)c2cccc(F)c2)cc1 (stereo not drawn) | 20 µM [rising, partial curve] | 22.4 µM [rising, single point] |
| CCOc1ccc(S(=O)(=O)Nc2ccc3oc(C)c(C(=O)OCCOC)c3c2)cc1 | 1.78 µM [rising, partial curve] | 1.41 µM [rising, full curve, poor fit] |
| CCOc1ccc(NC(=O)N2CCC(NC(=O)C(Cc3ccc(OC)c(OC)c3)NC(C)=O)CC2)cc1 (stereo not drawn) | 0.0398 µM [falling, full curve, poor fit] | – |
| NC(=O)COC(=O)c1c2c(nc3ccccc13)CCCCC2 | 0.2 µM [falling, full curve, poor fit] | – |
| Cc1ccc(S(=O)(=O)c2nc(NCc3ccc4c(c3)OCO4)sc2Cl)cc1 | 25.1 µM [rising, single point] | – |
| COc1ccc(CCNC(=O)CCc2ccc(S(=O)(=O)NCC(C)C)cc2)cc1 | 15.8 µM [rising, single point] | – |
| COC(=O)c1ccc2c(=O)n(-c3ccccc3)c(=S)[nH]c2c1 | – | 7.94 µM [falling, partial curve, poor fit] |
| O=C(Nc1cc2c3c(c1)C1CCCC1CN3CC1CCCC21)c1ccccc1 (stereo not drawn) | 2.51 µM [rising, partial curve, poor fit] | – |
| CCNc1ncc2nc(-c3cn(C)c4ccccc34)c(=O)n(Cc3ccc(F)cc3)c2n1 | – | 3.55 µM [falling, partial curve] |
| Brc1ccc(-c2csc(NC3=NCCCCC3)n2)cc1 | 0.501 µM [rising, partial curve, poor fit] | 17.8 µM [rising, partial curve, poor fit] |
| COc1cccc(/C=N\NC(=O)Cn2nnc3ccccc32)c1O | 17.8 µM [falling, partial curve] | – |
| O=C(CCNc1cccc(Cl)c1)c1cccs1 | 35.5 µM [falling, single point] | 20 µM [falling, single point] |
| COc1ccccc1N1N=C(c2cccs2)CC1c1ccccc1 (stereo not drawn) | 12.6 µM [rising, partial curve] | 14.1 µM [rising, partial curve, poor fit] |
| Clc1ccc(-c2ccnc(Oc3cc(Cl)ccc3Cl)n2)cc1 | 12.6 µM [falling, partial curve] | 12.6 µM [falling, partial curve, poor fit] |
| COC(=O)c1ccc(C(NC(=O)OCc2ccccc2)/C(F)=C/[C@@H](C)C(=O)NCc2ccc(-c3ccccc3)cc2)cc1 (stereo partly drawn) | 35.5 µM [rising, single point] | 35.5 µM [rising, single point] |
| CN(Cc1ccccc1)C(=O)CCSc1nc(-c2ccc3c(c2)OCO3)cc(C(F)(F)F)n1 | 17.8 µM [rising, partial curve] | – |
| Cc1cc(C=O)c(C)n1-c1ccc(N2CCCC2)c([N+](=O)[O-])c1 | 11.2 µM [rising, partial curve] | 7.08 µM [rising, full curve, poor fit] |
| CC(C)(C)c1ccc(-c2nc(C=O)c3ccccn23)cc1 | 12.6 µM [rising, partial curve] | 11.2 µM [rising, partial curve] |
| CCc1c(C)nc(SCC(=O)Nc2ccc(Br)cc2)[nH]c1=O | 35.5 µM [rising, single point] | – |
| COc1ccc(N2C(=O)C(CC(=O)Nc3ccccc3)N(Cc3ccc4c(c3)OCO4)C2=O)cc1 (stereo not drawn) | 22.4 µM [falling, partial curve, poor fit] | 11.2 µM [falling, single point] |
| CCOC(=O)c1cc(-c2ccccc2)n(CCC(=O)N2CCN(c3ccc(OC)cc3)CC2)c1C | 35.5 µM [rising, single point] | 35.5 µM [rising, single point] |
| CCCCN1CCc2c1nc1ccc(Br)cc1c2N | 10 µM [rising, partial curve, poor fit] | – |
| Cc1ccccc1NC(=O)/C(C#N)=C/c1ccsc1 | 22.4 µM [rising, single point] | – |

| Structure (SMILES) | AC50 [1] | AC50 [2] |
| --- | --- | --- |
| CCC(C)n1ncn(-c2ccc(N3CCN(c4ccc(O)cc4)CC3)cc2)c1=O (stereo not drawn) | 1.41 µM [rising, full curve] | 1 µM [rising, full curve, poor fit] |
| Cc1ccc(NS(=O)(=O)c2cccc(C(=O)Nc3cc(C)on3)c2)cc1 | 12.6 µM [rising, partial curve] | 7.08 µM [rising, partial curve, poor fit] |
| C#C[C@]1(O)CCC2C3CCC4=CC(=O)CCC4C3CC[C@@]21C (stereo partly drawn) | 2.82 µM [rising, partial curve] | 3.16 µM [rising, full curve] |
| CCc1ccc(OCC(=O)N/N=C(\C)c2ccc3c(c2)OCCO3)cc1 | 1.26 µM [rising, partial curve] | – |
| CCc1nc(SCC(=O)N2c3ccccc3CC2C)c2c(C)c(C)sc2n1 (stereo not drawn) | – | 8.91 µM [falling, partial curve] |
| CCOc1ccc(C(=O)OCc2cc(=O)n3nc(C4CCCCC4)sc3n2)cc1 | 25.1 µM [falling, partial curve, poor fit] | 35.5 µM [falling, partial curve, poor fit] |
| CN1CCN(C2=C(Cl)C(=O)N(C3CCCCC3)C2=O)CC1 | 12.6 µM [rising, partial curve] | 15.8 µM [rising, partial curve] |
| CC(C)CC(c1nnnn1Cc1ccco1)N1CCN(c2cccc(Cl)c2)CC1 (stereo not drawn) | 22.4 µM [rising, single point] | 0.00891 µM [rising, full curve, poor fit] |
| CC(C)Oc1ccc(C(=O)/C(=C\c2cccs2)c2nc3ccccc3o2)cc1 | 25.1 µM [rising, single point] | 31.6 µM [rising, single point] |
| Cc1ccc(CSCC(=O)N2CCN(Cc3ccc4c(c3)OCO4)CC2)cc1 | 25.1 µM [rising, single point] | – |
| O=C(/C=C/c1ccc2c(c1)OCO2)Nc1nc2ccccc2s1 | 6.31 µM [rising, full curve, poor fit] | – |
| Cn1c(CN2CCCCC2)nc2cc(NC(=O)c3cccc(Br)c3)ccc21 | 14.1 µM [rising, partial curve] | – |
| CC(=O)/C(=N\Nc1ccccc1)Sc1nncn1C | – | 0.0447 µM [rising, full curve, poor fit] |
| CCCCC(=O)Nc1nc2c(OC)cc([N+](=O)[O-])cc2s1 | – | 0.01 µM [falling, full curve, poor fit] |
| CCC(Oc1ccccc1)C(=O)Nc1ccc(O)c(-c2nc3cc(C)ccc3o2)c1 (stereo not drawn) | – | 6.31 µM [rising, partial curve, poor fit] |
| CC(C)(C)c1csc(NC(=O)c2cccs2)n1 | 12.6 µM [rising, single point] | – |
| Cc1cc(C)nc(N/N=C/c2ccccc2OCc2cccc(Br)c2)n1 | 35.5 µM [rising, single point] | 35.5 µM [rising, single point] |
| CCN=c1scc(-c2ccc(F)cc2)n1/N=C/c1ccccn1 | 6.31 µM [rising, single point] | – |
| CCCCCCCN1N=C(C)C(C(=O)c2ccccc2)C1=O (stereo not drawn) | 35.5 µM [rising, single point] | – |
| CCCCCN1CSC(=S)N(Cc2ccccc2)C1 | 35.5 µM [rising, single point] | 35.5 µM [rising, single point] |
| CCOc1ccccc1Oc1cn[nH]c1-c1ccc(OC)cc1O | 35.5 µM [rising, single point] | – |
| O=C1O/C(=C/Br)CCC1c1cccc2ccccc12 (stereo not drawn) | 3.55 µM [falling, full curve] | 2.82 µM [falling, full curve] |
| COC(=O)c1cnn(-c2ccc(C(=O)Nc3cccc(C(C)=O)c3)cc2)c1N | 0.112 µM [falling, full curve] | – |
| O=C1c2oc3ccccc3c(=O)c2C(c2ccc(Br)cc2)N1c1ccccn1 (stereo not drawn) | 0.0316 µM [falling, full curve, poor fit] | – |
| CC1=C/C(=N\OS(=O)(=O)c2ccccc2)C(C)=CC1=O | 35.5 µM [falling, single point] | 35.5 µM [falling, single point] |
| CN1CCN(C(=S)Nc2ccc(Cl)c(Cl)c2)CC1 | 17.8 µM [rising, partial curve] | – |
| Cc1ccc(C)c(OCC(=O)Nc2c[nH]c(=O)[nH]c2=O)c1 | 0.562 µM [falling, full curve] | 0.0562 µM [falling, full curve] |

Given field by field: part of the list above.
Cc1ccc(NS(=O)(=O)c2cccc(C(=O)Nc3cc(C)on3)c2)cc1
  AC50 [1]: 12.6 µM [rising, partial curve]
  AC50 [2]: 7.08 µM [rising, partial curve, poor fit]
C#C[C@]1(O)CCC2C3CCC4=CC(=O)CCC4C3CC[C@@]21C (stereo partly drawn)
  AC50 [1]: 2.82 µM [rising, partial curve]
  AC50 [2]: 3.16 µM [rising, full curve]
CCc1ccc(OCC(=O)N/N=C(\C)c2ccc3c(c2)OCCO3)cc1
  AC50 [1]: 1.26 µM [rising, partial curve]
CN1CCN(C2=C(Cl)C(=O)N(C3CCCCC3)C2=O)CC1
  AC50 [1]: 12.6 µM [rising, partial curve]
  AC50 [2]: 15.8 µM [rising, partial curve]
